Data on three compounds can be found in patent US11953435B2, “Zinc-responsive fluorophores” (Northwestern University, priority 2019, dated 2024).

This series in a line: Job plot with Zn. Type of series: binding. To be noted: probe (5 μM) and Zn(NO3)2 (5 μM).
Regarding `Cc1cc(C)c(C2=C3C=CC(OCCN=[N+]=[N-])=[N+]3[B-](F)(F)n3c2ccc3N(CCN(Cc2ccccn2)Cc2ccccn2)Cc2ccccn2)c(C)c1` [ZincBY-2, N1-(7-(2-azidoethoxy)-5,5-difluoro-10-mesityl-5H-4λ4,5λ4-dipyrrolo[1,2-c:2′,1′-f][1,3,2]diazaborinin-3-yl)-N1,N2,N2-tris(pyridin-2-ylmethyl)ethane-1,2-diamine], the “mole fraction at which fluorescence intensity reaches a maximum (Job plot)” value (“mole fraction” below) was 0.5.
On to `Cc1cc(C)c(C2=C3C=CC(OCCN)=[N+]3[B-](F)(F)n3c2ccc3N(CCN(Cc2ccccn2)Cc2ccccn2)Cc2ccccn2)c(C)c1` [ZincBY-3, N1-(7-(2-aminoethoxy)-5,5-difluoro-10-mesityl-5H-4λ4,5λ4-dipyrrolo[1,2-c:2′,1′-f][1,3,2]diazaborinin-3-yl)-N1,N2,N2-tris(pyridin-2-ylmethyl)ethane-1,2-diamine], for which the “mole fraction” value was found to be 0.5.
On to `CC(=O)NCCOc1ccc2n1[B-](F)(F)[N+]1=C(N(CCN(Cc3ccccn3)Cc3ccccn3)Cc3ccccn3)C=CC1=C2c1c(C)cc(C)cc1C` [ZincBY-4, N-(2-((7-((2-(bis(pyridin-2-ylmethyl)amino)ethyl)(pyridin-2-ylmethyl)amino)-5,5-difluoro-10-mesityl-5H-5λ4,6λ4-dipyrrolo[1,2-c:2′,1′-f][1,3,2]diazaborinin-3-yl)oxy)ethyl)acetamide], for which the “mole fraction” value amounted to 0.5.
